Measurements: the supplement of paper PMC6411743
± gives the standard deviation of the averaged measurements. The list shows a part of the results, in another mix than the full data. Most values lie at the level of the controls, where differences are scatter.

Protein sequences, listed by entry. Tags and fused reporters are not part of them. Lines headed by an entry give the natural chain unless they say otherwise; changes in a name come on top.
UniProt Q93015: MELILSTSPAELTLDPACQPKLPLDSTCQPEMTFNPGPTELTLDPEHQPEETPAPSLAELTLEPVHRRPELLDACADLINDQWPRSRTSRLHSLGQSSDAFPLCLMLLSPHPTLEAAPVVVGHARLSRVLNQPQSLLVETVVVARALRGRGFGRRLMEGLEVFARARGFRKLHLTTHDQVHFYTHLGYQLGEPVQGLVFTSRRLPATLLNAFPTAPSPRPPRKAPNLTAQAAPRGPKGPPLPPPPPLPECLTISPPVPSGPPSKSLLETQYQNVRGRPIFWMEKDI
UniProt Q92820: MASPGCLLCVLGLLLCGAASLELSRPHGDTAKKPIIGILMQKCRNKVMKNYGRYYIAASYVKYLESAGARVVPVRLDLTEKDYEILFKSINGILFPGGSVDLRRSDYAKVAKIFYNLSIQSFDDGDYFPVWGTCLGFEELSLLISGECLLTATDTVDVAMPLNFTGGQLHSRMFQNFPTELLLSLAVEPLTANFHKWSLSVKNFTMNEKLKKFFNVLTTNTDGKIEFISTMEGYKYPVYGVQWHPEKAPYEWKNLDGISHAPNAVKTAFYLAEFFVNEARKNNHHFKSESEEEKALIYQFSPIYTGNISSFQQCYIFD
UniProt Q969V3: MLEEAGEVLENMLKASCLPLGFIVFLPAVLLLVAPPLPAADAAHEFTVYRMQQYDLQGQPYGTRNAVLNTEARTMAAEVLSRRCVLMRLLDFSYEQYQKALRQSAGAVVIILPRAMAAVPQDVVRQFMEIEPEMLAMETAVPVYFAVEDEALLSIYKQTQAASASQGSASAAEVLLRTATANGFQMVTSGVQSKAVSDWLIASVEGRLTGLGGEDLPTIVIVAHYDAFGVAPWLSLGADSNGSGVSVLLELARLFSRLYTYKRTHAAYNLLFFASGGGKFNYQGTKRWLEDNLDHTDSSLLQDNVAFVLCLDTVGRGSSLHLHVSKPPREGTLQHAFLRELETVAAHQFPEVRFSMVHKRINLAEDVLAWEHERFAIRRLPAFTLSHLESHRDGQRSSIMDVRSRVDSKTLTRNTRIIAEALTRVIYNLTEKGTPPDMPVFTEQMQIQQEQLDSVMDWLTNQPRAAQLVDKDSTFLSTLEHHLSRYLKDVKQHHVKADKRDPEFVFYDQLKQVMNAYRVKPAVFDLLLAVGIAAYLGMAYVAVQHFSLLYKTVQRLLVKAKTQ
UniProt Q8TEQ6: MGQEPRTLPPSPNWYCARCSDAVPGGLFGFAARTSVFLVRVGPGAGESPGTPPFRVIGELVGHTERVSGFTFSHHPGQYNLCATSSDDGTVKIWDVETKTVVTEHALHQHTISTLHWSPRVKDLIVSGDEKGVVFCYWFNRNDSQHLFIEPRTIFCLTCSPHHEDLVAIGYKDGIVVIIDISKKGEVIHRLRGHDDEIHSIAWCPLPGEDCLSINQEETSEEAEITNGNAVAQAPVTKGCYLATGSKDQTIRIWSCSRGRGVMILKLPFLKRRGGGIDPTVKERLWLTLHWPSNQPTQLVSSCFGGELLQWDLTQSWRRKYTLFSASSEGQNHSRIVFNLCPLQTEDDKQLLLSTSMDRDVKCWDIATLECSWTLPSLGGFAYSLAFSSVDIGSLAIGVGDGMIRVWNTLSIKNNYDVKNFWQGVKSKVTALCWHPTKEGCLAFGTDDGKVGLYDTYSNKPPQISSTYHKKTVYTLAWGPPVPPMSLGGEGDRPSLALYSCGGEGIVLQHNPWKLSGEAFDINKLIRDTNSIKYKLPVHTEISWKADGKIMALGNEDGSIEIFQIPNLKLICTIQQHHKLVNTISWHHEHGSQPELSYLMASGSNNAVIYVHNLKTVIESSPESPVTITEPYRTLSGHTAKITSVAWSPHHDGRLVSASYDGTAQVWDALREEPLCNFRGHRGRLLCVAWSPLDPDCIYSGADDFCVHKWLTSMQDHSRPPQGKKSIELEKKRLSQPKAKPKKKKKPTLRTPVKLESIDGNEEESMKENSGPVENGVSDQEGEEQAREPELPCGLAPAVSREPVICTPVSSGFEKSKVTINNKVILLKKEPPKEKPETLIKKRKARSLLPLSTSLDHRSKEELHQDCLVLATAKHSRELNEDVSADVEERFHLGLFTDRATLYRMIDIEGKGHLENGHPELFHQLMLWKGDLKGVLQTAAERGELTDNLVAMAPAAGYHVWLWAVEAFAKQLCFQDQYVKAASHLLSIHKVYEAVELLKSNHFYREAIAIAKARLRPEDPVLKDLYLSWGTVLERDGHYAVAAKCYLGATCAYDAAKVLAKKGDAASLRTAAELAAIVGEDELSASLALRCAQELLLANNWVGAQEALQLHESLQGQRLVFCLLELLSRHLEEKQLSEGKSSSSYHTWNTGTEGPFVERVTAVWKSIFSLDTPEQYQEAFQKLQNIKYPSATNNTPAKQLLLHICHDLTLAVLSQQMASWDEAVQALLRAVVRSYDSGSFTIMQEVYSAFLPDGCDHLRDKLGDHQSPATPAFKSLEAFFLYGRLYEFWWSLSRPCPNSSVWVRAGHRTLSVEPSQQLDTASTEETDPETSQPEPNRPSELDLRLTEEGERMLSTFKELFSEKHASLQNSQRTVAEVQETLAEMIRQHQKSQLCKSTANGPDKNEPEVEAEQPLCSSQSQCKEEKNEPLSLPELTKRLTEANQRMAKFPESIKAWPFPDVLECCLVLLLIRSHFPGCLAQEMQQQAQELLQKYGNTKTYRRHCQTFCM
UniProt Q8TC07: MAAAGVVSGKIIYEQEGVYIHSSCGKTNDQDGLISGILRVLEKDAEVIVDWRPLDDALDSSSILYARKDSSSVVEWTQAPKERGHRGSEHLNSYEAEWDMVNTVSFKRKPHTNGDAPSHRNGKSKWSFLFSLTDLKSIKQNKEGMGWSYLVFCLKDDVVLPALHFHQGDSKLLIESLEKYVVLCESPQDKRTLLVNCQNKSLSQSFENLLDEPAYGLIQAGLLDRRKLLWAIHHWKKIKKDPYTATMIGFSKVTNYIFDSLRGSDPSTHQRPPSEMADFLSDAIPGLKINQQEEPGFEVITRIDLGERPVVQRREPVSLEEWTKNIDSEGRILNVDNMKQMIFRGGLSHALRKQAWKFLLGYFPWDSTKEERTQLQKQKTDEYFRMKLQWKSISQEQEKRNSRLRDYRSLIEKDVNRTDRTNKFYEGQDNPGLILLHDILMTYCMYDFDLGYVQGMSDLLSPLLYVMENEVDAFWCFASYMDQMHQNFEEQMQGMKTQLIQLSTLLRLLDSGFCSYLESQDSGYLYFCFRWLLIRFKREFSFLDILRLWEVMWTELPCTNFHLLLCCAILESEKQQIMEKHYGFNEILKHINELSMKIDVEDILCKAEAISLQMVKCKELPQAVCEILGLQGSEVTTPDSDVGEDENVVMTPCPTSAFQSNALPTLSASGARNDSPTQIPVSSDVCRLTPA
UniProt Q92540: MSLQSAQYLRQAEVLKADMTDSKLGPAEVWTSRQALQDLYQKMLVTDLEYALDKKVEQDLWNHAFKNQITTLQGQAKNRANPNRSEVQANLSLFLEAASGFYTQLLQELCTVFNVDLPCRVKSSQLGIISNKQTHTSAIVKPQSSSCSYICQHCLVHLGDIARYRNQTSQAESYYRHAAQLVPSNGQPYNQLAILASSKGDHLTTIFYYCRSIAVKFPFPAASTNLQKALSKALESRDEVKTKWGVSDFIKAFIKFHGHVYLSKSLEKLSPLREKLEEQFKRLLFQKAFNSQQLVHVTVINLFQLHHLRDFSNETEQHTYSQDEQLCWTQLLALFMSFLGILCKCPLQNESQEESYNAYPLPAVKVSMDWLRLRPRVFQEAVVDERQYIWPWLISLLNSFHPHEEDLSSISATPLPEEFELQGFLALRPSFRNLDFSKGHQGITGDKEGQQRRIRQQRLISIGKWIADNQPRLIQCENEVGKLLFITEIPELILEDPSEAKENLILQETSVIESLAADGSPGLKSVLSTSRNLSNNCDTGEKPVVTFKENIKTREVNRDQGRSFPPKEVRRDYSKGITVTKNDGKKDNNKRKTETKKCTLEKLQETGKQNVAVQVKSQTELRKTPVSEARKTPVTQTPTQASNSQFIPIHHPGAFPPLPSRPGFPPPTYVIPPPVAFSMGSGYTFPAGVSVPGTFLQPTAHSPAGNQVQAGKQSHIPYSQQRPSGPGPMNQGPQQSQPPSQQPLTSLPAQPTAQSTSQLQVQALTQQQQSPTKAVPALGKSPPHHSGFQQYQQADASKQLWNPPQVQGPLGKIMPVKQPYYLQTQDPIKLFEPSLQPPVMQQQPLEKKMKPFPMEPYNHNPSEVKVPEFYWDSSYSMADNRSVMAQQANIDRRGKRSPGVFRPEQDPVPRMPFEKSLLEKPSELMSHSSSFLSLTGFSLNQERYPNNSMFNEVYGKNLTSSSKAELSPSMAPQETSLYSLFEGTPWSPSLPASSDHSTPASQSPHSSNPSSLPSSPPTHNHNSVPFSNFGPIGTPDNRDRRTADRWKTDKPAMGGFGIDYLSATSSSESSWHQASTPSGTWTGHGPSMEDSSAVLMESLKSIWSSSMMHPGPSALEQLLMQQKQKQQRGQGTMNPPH
UniProt Q8WVD3: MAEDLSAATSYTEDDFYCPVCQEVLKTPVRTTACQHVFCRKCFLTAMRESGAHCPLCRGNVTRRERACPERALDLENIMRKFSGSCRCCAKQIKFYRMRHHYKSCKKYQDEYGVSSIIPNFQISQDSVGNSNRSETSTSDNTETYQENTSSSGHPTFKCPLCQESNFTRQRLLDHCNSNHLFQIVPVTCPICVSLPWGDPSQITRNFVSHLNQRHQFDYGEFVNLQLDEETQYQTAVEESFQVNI
UniProt Q92828: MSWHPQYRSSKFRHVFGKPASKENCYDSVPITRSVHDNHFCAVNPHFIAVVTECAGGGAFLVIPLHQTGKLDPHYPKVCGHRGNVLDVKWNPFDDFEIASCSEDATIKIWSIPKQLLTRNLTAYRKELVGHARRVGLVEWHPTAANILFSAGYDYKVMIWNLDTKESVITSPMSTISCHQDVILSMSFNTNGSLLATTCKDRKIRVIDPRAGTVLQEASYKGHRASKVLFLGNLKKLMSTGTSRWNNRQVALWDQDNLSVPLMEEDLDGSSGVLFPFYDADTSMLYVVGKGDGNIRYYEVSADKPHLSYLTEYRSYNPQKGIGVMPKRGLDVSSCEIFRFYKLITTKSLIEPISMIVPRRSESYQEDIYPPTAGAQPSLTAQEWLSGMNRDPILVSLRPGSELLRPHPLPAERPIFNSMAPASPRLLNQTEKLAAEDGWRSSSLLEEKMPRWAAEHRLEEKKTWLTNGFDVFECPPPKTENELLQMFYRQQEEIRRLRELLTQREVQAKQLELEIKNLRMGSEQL
UniProt Q92618: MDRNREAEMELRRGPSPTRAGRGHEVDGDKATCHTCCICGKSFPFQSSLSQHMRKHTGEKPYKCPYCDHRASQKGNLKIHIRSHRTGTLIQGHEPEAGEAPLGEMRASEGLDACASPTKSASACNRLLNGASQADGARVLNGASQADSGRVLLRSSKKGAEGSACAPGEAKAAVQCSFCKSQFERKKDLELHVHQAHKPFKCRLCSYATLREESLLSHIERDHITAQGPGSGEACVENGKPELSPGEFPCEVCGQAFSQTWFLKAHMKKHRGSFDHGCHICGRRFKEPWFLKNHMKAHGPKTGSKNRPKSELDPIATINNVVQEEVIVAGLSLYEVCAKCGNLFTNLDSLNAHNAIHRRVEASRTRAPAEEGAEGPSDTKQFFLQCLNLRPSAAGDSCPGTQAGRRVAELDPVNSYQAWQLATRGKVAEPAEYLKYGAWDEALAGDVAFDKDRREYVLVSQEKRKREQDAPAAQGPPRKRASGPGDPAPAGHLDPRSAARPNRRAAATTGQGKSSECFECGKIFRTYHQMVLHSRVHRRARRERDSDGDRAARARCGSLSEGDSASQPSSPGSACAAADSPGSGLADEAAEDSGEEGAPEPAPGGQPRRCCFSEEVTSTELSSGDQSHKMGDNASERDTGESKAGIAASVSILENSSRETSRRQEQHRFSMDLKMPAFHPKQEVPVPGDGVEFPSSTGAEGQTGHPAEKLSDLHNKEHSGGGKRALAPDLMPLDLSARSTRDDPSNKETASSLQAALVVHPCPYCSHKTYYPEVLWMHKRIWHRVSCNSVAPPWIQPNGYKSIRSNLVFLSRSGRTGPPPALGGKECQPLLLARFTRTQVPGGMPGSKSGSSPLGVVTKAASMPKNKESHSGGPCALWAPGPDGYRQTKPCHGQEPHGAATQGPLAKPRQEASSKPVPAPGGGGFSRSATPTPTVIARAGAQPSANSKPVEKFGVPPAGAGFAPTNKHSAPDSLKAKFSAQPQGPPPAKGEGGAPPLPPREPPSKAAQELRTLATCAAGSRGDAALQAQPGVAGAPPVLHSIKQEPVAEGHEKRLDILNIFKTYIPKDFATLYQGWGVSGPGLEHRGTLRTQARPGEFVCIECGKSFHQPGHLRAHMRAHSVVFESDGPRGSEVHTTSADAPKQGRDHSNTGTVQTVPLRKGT

Compound: Nc1ncnc2c1ncn2[C@@H]1O[C@H](COP(=O)(O)OP(=O)(O)OP(=O)(O)O)[C@@H](O)[C@H]1O [adenosine triphosphate]
Experiment: NP40-soluble protein abundance relative to vehicle (solubility fold change) (ratio); higher = more soluble protein in presence of ATP
How it was run: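 Eight concentrations, 0.1 to 10 mM, were tested on Jurkat crude lysate for 10 min at room temperature and then 3 min at 37 °C, in three independent experiments. The lysate was solubilised with 0.8% NP40 and benzonase, ultracentrifuged, and the supernatant TMT-labelled for LC-MS/MS. Each value is the fold change against the detergent-processed vehicle in its own replicate, from vsn-normalised intensities.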

## UniProt Q92567 and related entries
concentration: 0.1mM
  NP40-soluble protein abundance: 0.892 ± 0.062
concentration: 0.5mM
  NP40-soluble protein abundance: 0.842 ± 0.13

## UniProt Q8TF01
concentration: 0.1mM
  NP40-soluble protein abundance: 1.11 ± 0.043
concentration: 0.5mM
  NP40-soluble protein abundance: 1.28 ± 0.069

## UniProt Q93015 and related entries
concentration: 0.1mM
  NP40-soluble protein abundance: 0.9564 ± 0.0078
concentration: 0.5mM
  NP40-soluble protein abundance: 0.858 ± 0.043

## GGH (UniProt Q92820)
concentration: 0.1mM
  NP40-soluble protein abundance: 0.974 ± 0.023
concentration: 0.5mM
  NP40-soluble protein abundance: 0.986 ± 0.037

## CASKIN2 (UniProt Q8WXE0)
concentration: 0.1mM
  NP40-soluble protein abundance: 0.976 ± 0.032
concentration: 0.5mM
  NP40-soluble protein abundance: 1.01 ± 0.058

## UniProt Q969V3 and related entries
concentration: 0.1mM
  NP40-soluble protein abundance: 1.05 ± 0.085
concentration: 0.5mM
  NP40-soluble protein abundance: 1.01 ± 0.013

## GEMIN5 (UniProt Q8TEQ6)
concentration: 0.1mM
  NP40-soluble protein abundance: 1.04 ± 0.048
concentration: 0.5mM
  NP40-soluble protein abundance: 1.02 ± 0.015

## NUP205 (UniProt Q92621)
concentration: 0.1mM
  NP40-soluble protein abundance: 1.06 ± 0.081
concentration: 0.5mM
  NP40-soluble protein abundance: 1.04 ± 0.053

## LEO1 (UniProt Q8WVC0)
concentration: 0.1mM
  NP40-soluble protein abundance: 0.9899 ± 0.0086
concentration: 0.5mM
  NP40-soluble protein abundance: 1.03 ± 0.05

## UniProt Q8TC07 and related entries
concentration: 0.1mM
  NP40-soluble protein abundance: 1.07 ± 0.1
concentration: 0.5mM
  NP40-soluble protein abundance: 1.05 ± 0.079

## SMG7 (UniProt Q92540)
concentration: 0.1mM
  NP40-soluble protein abundance: 0.967 ± 0.07
concentration: 0.5mM
  NP40-soluble protein abundance: 0.967 ± 0.064

## GLMN (UniProt Q92990)
concentration: 0.1mM
  NP40-soluble protein abundance: 1.08 ± 0.083
concentration: 0.5mM
  NP40-soluble protein abundance: 1.01 ± 0.072

## RNF138 (UniProt Q8WVD3)
concentration: 0.1mM
  NP40-soluble protein abundance: 1.13 ± 0.16
concentration: 0.5mM
  NP40-soluble protein abundance: 1.04 ± 0.075

## CORO2A (UniProt Q92828)
concentration: 0.1mM
  NP40-soluble protein abundance: 1.11 ± 0.19
concentration: 0.5mM
  NP40-soluble protein abundance: 0.999 ± 0.018

## TGFBRAP1 (UniProt Q8WUH2)
concentration: 0.1mM
  NP40-soluble protein abundance: 1.05 ± 0.047
concentration: 0.5mM
  NP40-soluble protein abundance: 1.03 ± 0.041

## ZNF592 (UniProt Q92610)
concentration: 0.1mM
  NP40-soluble protein abundance: 0.961 ± 0.069
concentration: 0.5mM
  NP40-soluble protein abundance: 0.977 ± 0.072

## UniProt Q96AE7-2|Q96AE7
concentration: 0.1mM
  NP40-soluble protein abundance: 0.973 ± 0.1
concentration: 0.5mM
  NP40-soluble protein abundance: 1.02 ± 0.078

## ZC3H15 (UniProt Q8WU90)
concentration: 0.1mM
  NP40-soluble protein abundance: 1 ± 0.031
concentration: 0.5mM
  NP40-soluble protein abundance: 1 ± 0.056

## RTN4IP1 (UniProt Q8WWV3)
concentration: 0.1mM
  NP40-soluble protein abundance: 1.01 ± 0.043
concentration: 0.5mM
  NP40-soluble protein abundance: 1.05 ± 0.048

## ZNF516 (UniProt Q92618)
concentration: 0.1mM
  NP40-soluble protein abundance: 0.999 ± 0.17
concentration: 0.5mM
  NP40-soluble protein abundance: 1 ± 0.17

## UniProt Q969N2 and related entries
concentration: 0.1mM
  NP40-soluble protein abundance: 0.9693 ± 0.0077
concentration: 0.5mM
  NP40-soluble protein abundance: 0.949 ± 0.066

## GTF3C6 (UniProt Q969F1)
concentration: 0.1mM
  NP40-soluble protein abundance: 0.989 ± 0.031
concentration: 0.5mM
  NP40-soluble protein abundance: 1 ± 0.031

## UniProt Q969F9 and related entries
concentration: 0.1mM
  NP40-soluble protein abundance: 0.992 ± 0.066
concentration: 0.5mM
  NP40-soluble protein abundance: 0.972 ± 0.036
concentration: 1mM
  NP40-soluble protein abundance: 1.07 ± 0.16
concentration: 2mM
  NP40-soluble protein abundance: 1.11 ± 0.22
concentration: 4mM
  NP40-soluble protein abundance: 1.05 ± 0.26
concentration: 6mM
  NP40-soluble protein abundance: 1.05 ± 0.15
concentration: 8mM
  NP40-soluble protein abundance: 0.905 ± 0.044
concentration: 10mM
  NP40-soluble protein abundance: 0.962 ± 0.11
